The values below come from the supplement of paper PMC5355238.

Each structure is given as a SMILES string. Counter-ions that a name gives are not always drawn. The list shows a part of the results. Most values lie at the level of the controls, where differences are scatter.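 Using flow cytometry, the assay measures the median γH2AX antibody signal in S-phase Reh cells (a human leukemia line). Each score is the number of standard deviations from the median difference of paired plate sets. Candidate hits scored above 2.5; compounds scoring below -2 lowered MK1775-induced damage.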

This experiment deals with Reh. As to the kind of experiment: Z' of S-phase gammaH2AX difference (drug + MK1775 minus drug alone) (Z-score); higher = stronger synergistic S-phase DNA damage with MK1775. To be noted: MK1775 concentration 400 nM; first compound 10 µM; 4 h.
`CCCN(CC1CC1)c1nc(C)nc(Nc2c(Cl)cc(Cl)cc2Cl)c1Cl` + C=CCn1c(=O)c2cnc(Nc3ccc(N4CCN(C)CC4)cc3)nc2n1-c1cccc(C(C)(C)O)n1 [MK1775]: the “Z' of S-phase gammaH2AX difference (Z-score)” value was inactive: 1.14.

As to `Nc1ncnc2c1ncn2C1CCCC1` [9-cyclopentyladenine] + C=CCn1c(=O)c2cnc(Nc3ccc(N4CCN(C)CC4)cc3)nc2n1-c1cccc(C(C)(C)O)n1 [MK1775], the “Z' of S-phase gammaH2AX difference (Z-score)” value is inactive: -0.0301.

On to `O=C1NC(c2cccc([N+](=O)[O-])c2)=CCN1c1ccccc1O` [Icilin] + C=CCn1c(=O)c2cnc(Nc3ccc(N4CCN(C)CC4)cc3)nc2n1-c1cccc(C(C)(C)O)n1 [MK1775], for which the “Z' of S-phase gammaH2AX difference (Z-score)” value is inactive: 1.01.

Turning to `CCCCCC(O)CCCC(=O)O` (stereo not given) [5-hydroxydecanoic acid sodium] + C=CCn1c(=O)c2cnc(Nc3ccc(N4CCN(C)CC4)cc3)nc2n1-c1cccc(C(C)(C)O)n1 [MK1775], the “Z' of S-phase gammaH2AX difference (Z-score)” value was inactive: 1.03.

For the compound `N#CC1(c2ccc(NC(=O)c3cccnc3NCc3ccncc3)cc2)CCCC1` [Apatinib (YN968D1)] + C=CCn1c(=O)c2cnc(Nc3ccc(N4CCN(C)CC4)cc3)nc2n1-c1cccc(C(C)(C)O)n1 [MK1775], the “Z' of S-phase gammaH2AX difference (Z-score)” value is inactive: -0.112.

As to `CCCOc1ccccc1-c1nc2[nH]nnc2c(=O)[nH]1` [Zaprinast] + C=CCn1c(=O)c2cnc(Nc3ccc(N4CCN(C)CC4)cc3)nc2n1-c1cccc(C(C)(C)O)n1 [MK1775], the “Z' of S-phase gammaH2AX difference (Z-score)” value is inactive: 0.818.

On to `COc1ccc(Cl)cc1C(=O)NCCc1ccc(S(=O)(=O)NC(=O)NC2CCCCC2)cc1` [Glibenclamide] + C=CCn1c(=O)c2cnc(Nc3ccc(N4CCN(C)CC4)cc3)nc2n1-c1cccc(C(C)(C)O)n1 [MK1775], for which the “Z' of S-phase gammaH2AX difference (Z-score)” value is inactive: 1.94.

As to `CC#C[C@]1(O)CC[C@H]2[C@@H]3CCC4=CC(=O)CCC4=C3[C@@H](c3ccc(N(C)C)cc3)C[C@@]21C` [Mifepristone] + C=CCn1c(=O)c2cnc(Nc3ccc(N4CCN(C)CC4)cc3)nc2n1-c1cccc(C(C)(C)O)n1 [MK1775], the “Z' of S-phase gammaH2AX difference (Z-score)” value was inactive: -0.0388.

Turning to `CC#C[C@]1(O)CC[C@H]2[C@@H]3CCC4=CC(=O)CCC4=C3[C@@H](c3ccc(N(C)C)cc3)C[C@@]21C` [Mifepristone (Mifeprex)] + C=CCn1c(=O)c2cnc(Nc3ccc(N4CCN(C)CC4)cc3)nc2n1-c1cccc(C(C)(C)O)n1 [MK1775], the “Z' of S-phase gammaH2AX difference (Z-score)” value was inactive: -0.313.

On to `CC[C@@H]1C(=O)N(C)c2cnc(Nc3ccc(C(=O)N[C@H]4CC[C@H](N5CCN(CC6CC6)CC5)CC4)cc3OC)nc2N1C(C)C` [BI6727 (Volasertib)] + C=CCn1c(=O)c2cnc(Nc3ccc(N4CCN(C)CC4)cc3)nc2n1-c1cccc(C(C)(C)O)n1 [MK1775], for which the “Z' of S-phase gammaH2AX difference (Z-score)” value was inactive: -0.499.

Consider `Cc1ccc(OCC(O)C(C)NC(C)C)c2c1CCC2` (stereo not given) [ICI 118,551 hydrochloride] + C=CCn1c(=O)c2cnc(Nc3ccc(N4CCN(C)CC4)cc3)nc2n1-c1cccc(C(C)(C)O)n1 [MK1775], for which the “Z' of S-phase gammaH2AX difference (Z-score)” value was inactive: -0.532.

Regarding `O=C(O)C1=CC(=C(c2ccc(O)c(C(=O)O)c2)c2ccc(O)c(C(=O)O)c2)C=CC1=O` [Aurintricarboxylic acid] + C=CCn1c(=O)c2cnc(Nc3ccc(N4CCN(C)CC4)cc3)nc2n1-c1cccc(C(C)(C)O)n1 [MK1775], the “Z' of S-phase gammaH2AX difference (Z-score)” value is inactive: -0.287.

In the case of `NC(C(=O)O)C(O)C(=O)O` (racemic) [DL-threo-beta-hydroxyaspartic acid] + C=CCn1c(=O)c2cnc(Nc3ccc(N4CCN(C)CC4)cc3)nc2n1-c1cccc(C(C)(C)O)n1 [MK1775], the “Z' of S-phase gammaH2AX difference (Z-score)” value is inactive: 0.0899.

`O=c1ccn([C@@H]2O[C@H](COP(=O)(O)OP(=O)(O)O)[C@@H](O)[C@H]2O)c(=O)[nH]1` [Uridine 5'-diphosphate sodium] + C=CCn1c(=O)c2cnc(Nc3ccc(N4CCN(C)CC4)cc3)nc2n1-c1cccc(C(C)(C)O)n1 [MK1775]: the “Z' of S-phase gammaH2AX difference (Z-score)” value is inactive: 0.505.

As for `CC(C(O)c1ccc(O)cc1)N1CCC(Cc2ccccc2)CC1` (stereo not given) [Ifenprodil tartrate] + C=CCn1c(=O)c2cnc(Nc3ccc(N4CCN(C)CC4)cc3)nc2n1-c1cccc(C(C)(C)O)n1 [MK1775], the “Z' of S-phase gammaH2AX difference (Z-score)” value was inactive: 0.673.

For the compound `Cn1cc(C(F)(F)F)nc1-c1ccc(OCC(O)CNCCOc2ccc(O)c(C(N)=O)c2)cc1` (stereo not given) + C=CCn1c(=O)c2cnc(Nc3ccc(N4CCN(C)CC4)cc3)nc2n1-c1cccc(C(C)(C)O)n1 [MK1775], the “Z' of S-phase gammaH2AX difference (Z-score)” value is inactive: -0.11.

`C=C/C(C)=C/[C@@]1(C)SC(=O)C(C)=C1O` [Thiolactomycin] + C=CCn1c(=O)c2cnc(Nc3ccc(N4CCN(C)CC4)cc3)nc2n1-c1cccc(C(C)(C)O)n1 [MK1775]: the “Z' of S-phase gammaH2AX difference (Z-score)” value is inactive: -0.378.

As for `CC(C)(C)c1cc(NC(=O)Nc2ccc(-c3cn4c(n3)sc3cc(OCCN5CCOCC5)ccc34)cc2)no1` [Quizartinib (AC220)] + C=CCn1c(=O)c2cnc(Nc3ccc(N4CCN(C)CC4)cc3)nc2n1-c1cccc(C(C)(C)O)n1 [MK1775], the “Z' of S-phase gammaH2AX difference (Z-score)” value was inactive: -0.877.

Turning to `O=C(/C=C/c1cccc(S(=O)(=O)Nc2ccccc2)c1)NO` [Belinostat (PXD101)] + C=CCn1c(=O)c2cnc(Nc3ccc(N4CCN(C)CC4)cc3)nc2n1-c1cccc(C(C)(C)O)n1 [MK1775], the “Z' of S-phase gammaH2AX difference (Z-score)” value is inactive: 0.427.

For the compound `COc1ccc2c(c1)c(CC(=O)O)c(C)n2C(=O)c1ccccc1` [1-benzoyl-5-methoxy-2-methylindole-3-acetic acid] + C=CCn1c(=O)c2cnc(Nc3ccc(N4CCN(C)CC4)cc3)nc2n1-c1cccc(C(C)(C)O)n1 [MK1775], the “Z' of S-phase gammaH2AX difference (Z-score)” value is inactive: 0.174.

On to `Cc1cc(C(C)(C)C)cc(C)c1CC1=NCCN1` [Xylometazoline hydrochloride] + C=CCn1c(=O)c2cnc(Nc3ccc(N4CCN(C)CC4)cc3)nc2n1-c1cccc(C(C)(C)O)n1 [MK1775], for which the “Z' of S-phase gammaH2AX difference (Z-score)” value is inactive: 0.293.

Turning to `O=c1[nH]ccc2c(O)cccc12` [1,5-Isoquinolinediol] + C=CCn1c(=O)c2cnc(Nc3ccc(N4CCN(C)CC4)cc3)nc2n1-c1cccc(C(C)(C)O)n1 [MK1775], the “Z' of S-phase gammaH2AX difference (Z-score)” value was inactive: 1.6.

As for `O=C(c1cc(O)c(O)c([N+](=O)[O-])c1)c1ccccc1F` + C=CCn1c(=O)c2cnc(Nc3ccc(N4CCN(C)CC4)cc3)nc2n1-c1cccc(C(C)(C)O)n1 [MK1775], the “Z' of S-phase gammaH2AX difference (Z-score)” value is inactive: 0.162.

Regarding `COc1ccc2c3n(c(=NC(=O)c4cccnc4)nc2c1OC)CCN3` + C=CCn1c(=O)c2cnc(Nc3ccc(N4CCN(C)CC4)cc3)nc2n1-c1cccc(C(C)(C)O)n1 [MK1775], the “Z' of S-phase gammaH2AX difference (Z-score)” value was inactive: -0.19.

As to `CCN(CC)CCOCCOC(=O)C1(c2ccccc2)CCCC1` [Carbetapentane citrate] + C=CCn1c(=O)c2cnc(Nc3ccc(N4CCN(C)CC4)cc3)nc2n1-c1cccc(C(C)(C)O)n1 [MK1775], the “Z' of S-phase gammaH2AX difference (Z-score)” value was inactive: -0.655.

For `CNC(=O)c1ccc(N2C(=S)N(c3ccc(C#N)c(C(F)(F)F)c3)C(=O)C2(C)C)cc1F` [MDV3100 (Enzalutamide)] + C=CCn1c(=O)c2cnc(Nc3ccc(N4CCN(C)CC4)cc3)nc2n1-c1cccc(C(C)(C)O)n1 [MK1775], the “Z' of S-phase gammaH2AX difference (Z-score)” value was inactive: 0.149.

`N[C@H]1CONC1=O` [L-Cycloserine] + C=CCn1c(=O)c2cnc(Nc3ccc(N4CCN(C)CC4)cc3)nc2n1-c1cccc(C(C)(C)O)n1 [MK1775]: the “Z' of S-phase gammaH2AX difference (Z-score)” value is inactive: 0.19.

As for `COc1cc2nc(N3CCN(C(=O)C4COc5ccccc5O4)CC3)nc(N)c2cc1OC` (stereo not given) [Doxazosin mesylate] + C=CCn1c(=O)c2cnc(Nc3ccc(N4CCN(C)CC4)cc3)nc2n1-c1cccc(C(C)(C)O)n1 [MK1775], the “Z' of S-phase gammaH2AX difference (Z-score)” value was inactive: -0.318.

As to `OC[C@H]1O[C@@H](n2cnc3c(N[C@H]4CC5CCC4C5)ncnc32)[C@H](O)[C@@H]1O` (stereo not given in full) + C=CCn1c(=O)c2cnc(Nc3ccc(N4CCN(C)CC4)cc3)nc2n1-c1cccc(C(C)(C)O)n1 [MK1775], the “Z' of S-phase gammaH2AX difference (Z-score)” value is inactive: 0.993.

For `CCOC(=O)[C@@H](C)Oc1cccc2c(=O)n(CC(=O)Nc3ccc4c(c3)OCCO4)ccc12` + C=CCn1c(=O)c2cnc(Nc3ccc(N4CCN(C)CC4)cc3)nc2n1-c1cccc(C(C)(C)O)n1 [MK1775], the “Z' of S-phase gammaH2AX difference (Z-score)” value was inactive: -0.0318.

With `c1cc(CN2CCCCC2)cc(OCCCNc2nc3ccccc3s2)c1` + C=CCn1c(=O)c2cnc(Nc3ccc(N4CCN(C)CC4)cc3)nc2n1-c1cccc(C(C)(C)O)n1 [MK1775], the “Z' of S-phase gammaH2AX difference (Z-score)” value is inactive: 0.296.

Turning to `CCN(CC)CCNC(=O)c1ccc(N)cc1` [Procainamide hydrochloride] + C=CCn1c(=O)c2cnc(Nc3ccc(N4CCN(C)CC4)cc3)nc2n1-c1cccc(C(C)(C)O)n1 [MK1775], the “Z' of S-phase gammaH2AX difference (Z-score)” value is inactive: 0.539.

For `CCOC(=O)C1=C(C)NC(=S)NC1c1cccc(O)c1` (stereo not given) [Monastrol] + C=CCn1c(=O)c2cnc(Nc3ccc(N4CCN(C)CC4)cc3)nc2n1-c1cccc(C(C)(C)O)n1 [MK1775], the “Z' of S-phase gammaH2AX difference (Z-score)” value was inactive: -0.558.

On to `CC[C@H]1OC(=O)[C@H](C)[C@@H](O[C@H]2C[C@@](C)(OC)[C@@H](O)[C@H](C)O2)[C@H](C)[C@@H](O[C@@H]2O[C@H](C)C[C@H](N(C)C)[C@H]2O)[C@](C)(O)C[C@@H](C)CN(C)[C@H](C)[C@@H](O)[C@]1(C)O` [Azithromycin (Zithromax)] + C=CCn1c(=O)c2cnc(Nc3ccc(N4CCN(C)CC4)cc3)nc2n1-c1cccc(C(C)(C)O)n1 [MK1775], for which the “Z' of S-phase gammaH2AX difference (Z-score)” value is inactive: 0.629.

For the compound `OCCn1cc(-c2ccc3c(c2)CC/C3=N\O)c(-c2ccncc2)n1` + C=CCn1c(=O)c2cnc(Nc3ccc(N4CCN(C)CC4)cc3)nc2n1-c1cccc(C(C)(C)O)n1 [MK1775], the “Z' of S-phase gammaH2AX difference (Z-score)” value was inactive: -0.0037.
